{"source": "patent US7914768B2", "about": "“Stabiliser for radiopharmaceuticals” (GE Healthcare Limited, priority 2000, dated 2011)", "origin": "cited, not measured here", "conditions": "post-radiolabelling addition of the stabiliser; cited from earlier work", "note": "Some entries share one result that the patent states for a list of compounds."}
{"smiles": "CN(C)c1ccc2nc3ccc(=[N+](C)C)cc-3sc2c1", "note": "[methylene blue]", "values": [{"measurement": "Rcp of ^99mTc-HMPAO at 4 hours post reconstitution", "result": "at least 80%"}]}
